# Laboratory results published in PubChem BioAssay AID720574 (Broad Institute, 2013).
# The chains behind the UniProt entries cited, without tags or fusion partners. Residues count along the entry.
# UniProt Q9H3R0, 2-372 limits assumed: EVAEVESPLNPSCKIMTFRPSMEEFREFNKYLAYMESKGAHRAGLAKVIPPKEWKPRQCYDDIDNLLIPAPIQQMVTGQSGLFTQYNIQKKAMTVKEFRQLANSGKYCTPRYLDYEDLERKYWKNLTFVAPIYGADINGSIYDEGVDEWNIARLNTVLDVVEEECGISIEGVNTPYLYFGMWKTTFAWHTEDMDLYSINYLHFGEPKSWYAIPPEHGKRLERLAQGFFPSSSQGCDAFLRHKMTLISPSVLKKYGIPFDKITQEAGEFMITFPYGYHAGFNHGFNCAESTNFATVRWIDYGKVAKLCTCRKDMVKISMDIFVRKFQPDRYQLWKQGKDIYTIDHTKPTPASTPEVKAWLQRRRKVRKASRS
# Hit rate of the full screen: of about 96,000 compounds, about 140 (0.15%) were called active. The inconclusive results got no clear call from the source; some entries with a clear call stand among them for comparison.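 Rule for the calls: active = mean replicate inhibition above about 25%, with at least 55% of replicates also reaching it (limit read from the data, passing the limit was not always enough); inconclusive = only one of those two conditions met; inactive = neither condition met.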 Some compounds were tested as several samples or in several runs, with calls that do not always agree.
# Target: Lysine-specific demethylase 4C (Homo sapiens) (UniProt Q9H3R0)
# Assay: inhibitors of GASC-1 (KDM4C) histone demethylase, primary screen, biochemical, single concentration HTS (AID 720574)
# Details: GST-KDM4C 2-372, H3K9me3 peptide, LANCE TR-FRET; at 12.5 µM; active compounds read high
# Outline: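 Material: GST-tagged GASC-1 (JMJD2C) catalytic fragment, aa 2-372. Input: enzyme final amount 10 nM. Medium: HEPES buffer, pH 7.5, plus ascorbate. Reagent: H3K9me3 peptide substrate, Fe(II), 2-oxoglutarate. Doses: single dose. Times: reaction 30 min RT, detection step 1 h RT. Measured by: LANCE TR-FRET. Evaluation: Fall in 671/618 emission ratio as inhibition.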
row,Compound,inhibition
1,CN(C)c1ccc2c(c1)[C@@H]1C[C@@H](CC(=O)N3CCc4ccccc4C3)O[C@H](CO)[C@@H]1O2,inconclusive: 26.1%
2,C/C=C/c1cccc(-c2nc(C(=O)N3CCN(C)CC3)cc3c2[C@H](CCO)N(C(=O)NC(C)C)C3)c1,inconclusive: 37.6%
3,C[C@@H]1CN([C@@H](C)CO)C(=O)c2cc(C#CC3CCCCC3)cnc2O[C@@H]1CN(C)C(=O)C1CCCCC1,inconclusive: 27%
4,COc1ccc2c3c([nH]c2c1)[C@@H](CO)N(C(=O)Cc1ccccc1)CC31CCN(C(=O)Nc2ccccc2F)CC1,inconclusive: 43%
5,O=C(CN1CCOCC1)N[C@H]1CC[C@H](CCn2cc(C3CCCC3)nn2)O[C@@H]1CO,inconclusive: 34.3%
6,CO[C@H]1CN(C)C(=O)c2ccc(NC(=O)c3cnccn3)cc2OC[C@@H](C)NC[C@H]1C,inconclusive: 32.7%
7,C[C@H]1CN([C@@H](C)CO)S(=O)(=O)c2ccc(-c3cccc(C(=O)N(C)C)c3)cc2O[C@@H]1CN(C)C(=O)Nc1ccc(F)cc1,inconclusive: 25.8%
8,C[C@H]1CN([C@@H](C)CO)C(=O)Cc2cc(NC(=O)Cn3cnnn3)ccc2O[C@@H]1CN(C)Cc1ccc(C(=O)Nc2ccccc2N)cc1,inconclusive: 34.6%
9,O=C(NCC[C@H]1CC[C@H](NC(=O)c2cccnc2)[C@H](CO)O1)Nc1ccc(F)cc1,active: 64.8%
10,CNC(=O)C[C@H]1CC[C@@H]2[C@H](COc3ccc(NC(=O)c4ccc5c(c4)OCO5)cc3C(=O)N2C)O1,inactive: -1.21%
11,Cc1ccc(S(=O)(=O)N(C)C[C@@H]2Oc3c(NS(=O)(=O)c4ccccc4)cccc3C(=O)N([C@@H](C)CO)C[C@H]2C)cc1,inconclusive: 38.1%
12,CO[C@H]1CN(C)C(=O)c2ccc(NC(=O)C3CCC3)cc2OC[C@H](C)N(CC2CCCCC2)C[C@H]1C,inconclusive: 26.2%
13,C[C@@H]1CN([C@H](C)CO)C(=O)c2cc(NC(=O)Nc3ccc(F)cc3)ccc2O[C@@H](C)CCCCO[C@@H]1CN(C)S(=O)(=O)c1ccccc1,inactive: 16.8%
14,CN(C)c1ccc2c(c1)[C@@H]1C[C@@H](CC(=O)NCc3cccc(F)c3)O[C@@H](CO)[C@@H]1O2,inconclusive: 26.2%
15,CNC[C@@H]1OCCCC[C@@H](C)Oc2ccc(NC(=O)NC(C)C)cc2C(=O)N([C@H](C)CO)C[C@H]1C,inconclusive: 41.6%
16,C[C@H]1CN([C@@H](C)CO)C(=O)c2cc(C#CCc3ccccc3)cnc2O[C@@H]1CN(C)Cc1ccccn1,inconclusive: 26.2%
17,C[C@H](CO)N1C[C@H](C)[C@H](CN(C)CC2CCCCC2)Oc2ccc(NC(=O)C3CCCCC3)cc2CC1=O,inconclusive: 38.8%
18,C[C@@H]1CN([C@H](C)CO)S(=O)(=O)c2ccc(-c3ccncc3)cc2O[C@H]1CN(C)S(=O)(=O)c1ccccc1F,inconclusive: 45.4%
19,O=C(C[C@@H]1CC[C@@H]2[C@H](COC[C@@H](O)CN2Cc2ccc3c(c2)OCO3)O1)N1CCOCC1,inactive: 0.992%
20,Cc1ccc(S(=O)(=O)N[C@@H]2CC[C@@H](CC(=O)NCc3ccccc3F)O[C@H]2CO)cc1,inactive: 2%

row,Compound,inhibition
1,COC(=O)C[C@H]1C[C@H]2c3cc(N(C)C)ccc3O[C@H]2[C@H](CO)O1,active: 43.4%
2,O=C(Nc1cc(F)ccc1F)N1CC(=O)N2[C@H](CO)[C@@H](c3ccc(-c4cccc(F)c4)cc3)[C@H]2C1,inconclusive: 30.4%
3,C/C=C/c1ccc2c(c1)O[C@H](CN(C)C(=O)C1CCCCC1)[C@H](C)CN([C@H](C)CO)S2(=O)=O,inconclusive: 27.3%
4,COc1ccc2c3c([nH]c2c1)[C@@H](CO)N(C)CC31CN(C(=O)c2ccccc2F)C1,inconclusive: 35.8%
5,CCCNC(=O)N(C)C[C@H]1Oc2cc(C#Cc3cccc(F)c3)ccc2S(=O)(=O)N([C@@H](C)CO)C[C@H]1C,inconclusive: 40.9%
6,N#C[C@@H]1[C@H](c2ccc(-c3cccc(F)c3)cc2)[C@H](CO)N1S(=O)(=O)c1cccc(F)c1,inactive: -1.01%
7,CCC(=O)Nc1ccc2c(c1)OC[C@H](C)N(C(=O)c1ccc(F)cc1)C[C@H](C)[C@H](OC)CN(C)C2=O,inconclusive: 36.9%
8,C[C@H]1CN([C@@H](C)CO)C(=O)c2cc(NS(=O)(=O)c3ccc(Cl)cc3)ccc2O[C@H]1CN(C)CC1CC1,inconclusive: 32.9%
9,CCCNC(=O)N(C)C[C@@H]1Oc2cc(-c3cccnc3)ccc2S(=O)(=O)N([C@@H](C)CO)C[C@@H]1C,active: 29.7%
10,C[C@@H]1CN([C@@H](C)CO)S(=O)(=O)c2ccc(C#Cc3ccccc3F)cc2O[C@H]1CN(C)C,inactive: -2.68%
11,C[C@H](NC(=O)[C@H]1[C@H](CO)[C@H]2Cn3c(cccc3=O)[C@H]2N1Cc1ccncc1)c1ccccc1,inconclusive: 32.6%
12,C[C@@H]1CN([C@H](C)CO)C(=O)c2cccc(NC(=O)c3ccc(-c4nccs4)cc3)c2O[C@H]1CN(C)C(=O)Nc1ccc(C(F)(F)F)cc1,inconclusive: 26.1%
13,O=C(C[C@@H]1C[C@H]2c3cc(NC(=O)C4CCOCC4)ccc3O[C@H]2[C@H](CO)O1)NCc1ccncc1,inconclusive: 25.1%
14,C[C@@H]1CCCCO[C@@H](CN(C)S(=O)(=O)c2cn(C)cn2)[C@H](C)CN([C@@H](C)CO)C(=O)c2cc(NS(=O)(=O)c3ccc(F)cc3)ccc2O1,inactive: 7.71%
15,COc1ccccc1CN1C[C@@H](C)[C@H](OC)CN(C)C(=O)c2ccc(NC(C)=O)cc2OC[C@H]1C,inactive: 0.165%
16,COC(=O)[C@@H]1[C@@H](CO)[C@@H]2Cn3c(ccc(-c4cccc(F)c4)c3=O)[C@@H]2N1Cc1ccccn1,inconclusive: 27%
17,CN(C)c1ccc2c(c1)[C@@H]1C[C@H](CC(=O)NCc3ccccc3)O[C@@H](CO)[C@@H]1O2,active: 46.7%
18,CN1C(=O)c2cc(NC(=O)C3CC3)ccc2OC[C@H]2O[C@@H](CC(=O)O)CC[C@@H]21,active: 44.3%
19,Cc1noc(C)c1S(=O)(=O)Nc1ccc2c(c1)C(=O)N([C@@H](C)CO)C[C@@H](C)[C@@H](CN(C)C(=O)Nc1ccc(C(F)(F)F)cc1)OCCCC[C@H](C)O2,inconclusive: 30.7%
20,CO[C@H]1CN(C)C(=O)c2cc(NC(=O)Nc3ccccc3F)ccc2OC[C@H](C)NC[C@H]1C,inconclusive: 30.6%

row,Compound,inhibition
1,C[C@H]1CN([C@@H](C)CO)C(=O)c2cc(NC(=O)CCCCCC(=O)Nc3ccccc3N)ccc2O[C@H]1CN(C)C(=O)Nc1ccc(C(F)(F)F)cc1,inconclusive: 36.9%
2,CO[C@H]1CN(C)C(=O)c2cc(NC(C)=O)ccc2OC[C@@H](C)N(C(=O)CC2CC2)C[C@H]1C,active: 37.9%
3,C/C=C/c1ccc([C@H]2[C@@H](CO)N3CCCCN(C)C[C@H]23)cc1,inactive: -0.382%
4,Cc1ccccc1S(=O)(=O)N1CC[C@@H]2[C@@H](CO)N(C)c3ccc(-c4cccc(C#N)c4)cc3[C@@H]21,inactive: -9.73%
5,CO[C@H]1CN(C)C(=O)c2ccc(NC(=O)c3nc4ccccc4s3)cc2OC[C@H](C)N(Cc2ccncc2)C[C@H]1C,inconclusive: 26.7%
6,COc1ccccc1S(=O)(=O)N(C)C[C@H]1Oc2ncc(Br)cc2C(=O)N([C@@H](C)CO)C[C@H]1C,inconclusive: 25.2%
7,O=C(NC1CCCC1)N1CCCCN2[C@H](CO)[C@H](c3ccc(-c4ccccc4)cc3)[C@H]2C1,inactive: -0.78%
8,N#Cc1ccc(-c2ccc(C3[C@@H]4CN(C(=O)c5ccncc5)C[C@H]3N4)cc2)cc1 (stereo not given in full),active: 38.5%
9,CO[C@H]1CN(C)C(=O)c2ccc(NC(=O)C3CCCC3)cc2OC[C@H](C)N(C(C)=O)C[C@H]1C,active: 47.3%
10,CCCNC(=O)C[C@@H]1C[C@H]2c3cc(NC(=O)CC4CC4)ccc3O[C@H]2[C@H](CO)O1,active: 41.1%
11,C[C@@H]1CCCCO[C@H](CN(C)CC2CCCCC2)[C@H](C)CN([C@H](C)CO)C(=O)c2cc(NC(=O)C3CCCCC3)ccc2O1,inconclusive: 49.7%
12,CN(C)c1ccc2c(c1)[C@@H]1C[C@H](CC(=O)NCc3cccc(F)c3)O[C@@H](CO)[C@@H]1O2,inconclusive: 30.4%
13,CO[C@@H]1CN(C)C(=O)c2cc(NC(=O)c3cccc(F)c3)ccc2OC[C@H](C)N(C(C)=O)C[C@H]1C,active: 64.5%
14,O=C(Cc1ccccn1)NCC[C@@H]1CC[C@@H](NC(=O)c2ccccc2F)[C@@H](CO)O1,inconclusive: 31.3%
15,COc1ccc(C#Cc2ccc3c(c2)[C@H]2[C@H](CCN2S(=O)(=O)c2ccccc2C)[C@H](CO)N3)cc1,inactive: -0.718%
16,O=C(Nc1ccccc1F)N1C[C@@H]2N[C@H](C1)C2c1ccc(/C=C/c2ccccc2)cc1 (stereo not given in full),inconclusive: 29.9%
17,CCC(=O)Nc1ccc2c(c1)C(=O)N(C)[C@@H]1CC[C@@H](CC(=O)NCCc3ccccc3)O[C@@H]1CO2,inconclusive: 46.8%
18,COc1cccc(C(=O)Nc2ccc3c(c2)C(=O)N(C)[C@@H]2CC[C@@H](CC(=O)NCc4ccc(F)cc4)O[C@H]2CO3)c1,inactive: -2.89%
19,C[C@@H]1CCCCO[C@H](CN(C)C(=O)c2ccncc2)[C@H](C)CN([C@H](C)CO)C(=O)c2cc(NC(=O)c3ccccc3)ccc2O1,inactive: 1.08%
20,CCN1[C@H](C(=O)NC2CCC2)[C@@H](CO)[C@@H]2Cn3c(ccc(-c4ccccc4F)c3=O)[C@@H]21,inconclusive: 29.6%

# Another view of part of the listing above:
row	Compound	inhibition
3	C[C@@H]1CN([C@@H](C)CO)C(=O)c2cc(C#CC3CCCCC3)cnc2O[C@@H]1CN(C)C(=O)C1CCCCC1	inconclusive: 27%
11	Cc1ccc(S(=O)(=O)N(C)C[C@@H]2Oc3c(NS(=O)(=O)c4ccccc4)cccc3C(=O)N([C@@H](C)CO)C[C@H]2C)cc1	inconclusive: 38.1%
13	C[C@@H]1CN([C@H](C)CO)C(=O)c2cc(NC(=O)Nc3ccc(F)cc3)ccc2O[C@@H](C)CCCCO[C@@H]1CN(C)S(=O)(=O)c1ccccc1	inactive: 16.8%
20	Cc1ccc(S(=O)(=O)N[C@@H]2CC[C@@H](CC(=O)NCc3ccccc3F)O[C@H]2CO)cc1	inactive: 2%
18	CN1C(=O)c2cc(NC(=O)C3CC3)ccc2OC[C@H]2O[C@@H](CC(=O)O)CC[C@@H]21	active: 44.3%
